Literature values in patent publication US20250032463A1, “RAPAMYCIN-CONTAINING PHARMACEUTICAL COMPOSITION” (NOBELPHARMA CO., LTD., priority 2023, published 2025).

- solubility in water: almost insoluble
SMILES: CO[C@H]1C[C@@H]2CC[C@@H](C)[C@@](O)(O2)C(=O)C(=O)N2CCCC[C@H]2C(=O)O[C@H]([C@H](C)C[C@@H]2CC[C@@H](O)[C@H](OC)C2)CC(=O)[C@H](C)/C=C(\C)[C@@H](O)[C@@H](OC)C(=O)[C@H](C)C[C@H](C)/C=C/C=C/C=C/1C [rapamycin, Rapamycin]
